{"source": "PubChem BioAssay AID540256", "about": "(National Center for Advancing Translational Sciences (NCATS), 2011)", "note": "Screen size: about 300,000 compounds; about 3,700 (1.2%) were called active. Inconclusive results, whose numbers are uncertain, are shown with a selection of clear calls. Calls follow the shape of the full dose curve; tested in HEK293 cells. Where the call is inconclusive, the potency comes from a doubtful curve fit. Potency is read from the fitted curve at half-maximal effect.", "data": [{"assay": "qHTS for Inhibitors of binding or entry into cells for Lassa Virus; also: nearly all actives have a fitted effect of over 50% in size", "details": "Lassa virus pseudotype entry inhibition, cell reporter; series mostly up to 37.9 µM", "values": [{"smiles": "Cc1cc(C)n(/N=C/c2c[nH]c3ccccc23)c(=O)c1", "Potency": "inactive"}, {"smiles": "COc1ccc(OC)c(NC(=O)CSc2nnc(C3CCCCC3)n2-c2ccccc2)c1", "Potency": "inconclusive: 35.5 µM [inhibitor, single point]"}, {"smiles": "O=P(Oc1ccccc1)(Oc1ccccc1)N1CCN(c2ccc(F)cc2)CC1", "Potency": "inconclusive: 11.2 µM [inhibitor, partial curve, poor fit]"}, {"smiles": "Cc1cc(/C=N/Nc2ccc([N+](=O)[O-])cn2)c(C)n1-c1ccccc1", "Potency": "inactive"}, {"smiles": "COC(=O)c1cc(Oc2ccc(C(=O)OC)cc2N)cc(C(=O)OC)c1", "Potency": "inconclusive: 29.1 µM [activator, single point]"}, {"smiles": "COc1cc(CNCCO)cc(Br)c1OCc1ccccc1Cl", "Potency": "inactive"}, {"smiles": "CC(=O)Nc1cc(C(=O)OC(C(=O)c2ccccc2)c2ccccc2)ccc1C", "note": "(stereo not drawn)", "Potency": "inconclusive: 12.6 µM [inhibitor, single point]"}, {"smiles": "COc1ccccc1N1CCN(C(=S)Nc2ccc3nc(N4CCOCC4)cc(C)c3c2)CC1", "Potency": "inconclusive: 20 µM [inhibitor, partial curve, poor fit]"}, {"smiles": "O=C(NCCNS(=O)(=O)c1ccccc1)N1CCOCC1", "Potency": "inactive"}, {"smiles": "Nc1nc(SCc2ccc(Cl)cc2Cl)nc2nc3c(cc12)CCCC3", "Potency": "inconclusive: 7.31 µM [inhibitor, partial curve, poor fit]"}, {"smiles": "NC(N)=N/N=C/c1ccc(Cl)c(Cl)c1", "Potency": "inconclusive: 0.562 µM [activator, full curve, poor fit]"}, {"smiles": "O=c1c2[nH]c3cccc(Cl)c3c2ncn1CC1CCCO1", "note": "(stereo not drawn)", "Potency": "inconclusive: 6.31 µM [activator, partial curve, poor fit]"}, {"smiles": "CCCN(CCC)CCNC(=O)c1cc2c(-c3ccccc3F)nn(C)c2s1", "Potency": "inconclusive: 5.62 µM [inhibitor, full curve, poor fit]"}, {"smiles": "Cc1oc(-c2cccc(F)c2)nc1CN(Cc1ccccc1)C[C@@H]1CCC(=O)N1", "Potency": "inconclusive: 35.5 µM [inhibitor, partial curve, poor fit]"}, {"smiles": "COc1ccc(NC(=O)CN(Cc2ccccc2)S(=O)(=O)c2ccc3nc(C)sc3c2)cc1", "Potency": "inactive"}, {"smiles": "Cc1cc(OCC(=O)N(Cc2ccco2)C2CCS(=O)(=O)C2)ccc1Cl", "note": "(stereo not drawn)", "Potency": "inactive"}, {"smiles": "O=C(Nc1cc(C(F)(F)F)ccc1N1CCOCC1)c1ccc2ccccc2n1", "Potency": "inconclusive: 6.51 µM [inhibitor, single point]"}, {"smiles": "O=C(COc1ccc(S(=O)(=O)NC2CCCC2)cc1)N1CCCCCC1", "Potency": "inconclusive: 0.1 µM [inhibitor, full curve, poor fit]"}, {"smiles": "Cc1ccc(C)c(NC(=O)CCCn2nc(C)c3sc4ccccc4c3c2=O)c1", "Potency": "inconclusive: 5.62 µM [activator, partial curve, poor fit]"}, {"smiles": "Brc1ccc2c(c1)c1cc(Br)ccc1n2CC1CO1", "note": "(stereo not drawn)", "Potency": "inconclusive: 7.5 µM [inhibitor, single point]"}, {"smiles": "COc1cnc(-c2ccccn2)nc1Sc1ccc(C)cc1", "Potency": "inconclusive: 16.4 µM [inhibitor, single point]"}, {"smiles": "COC(=O)c1cn(NC(=O)c2ccc(OC)c(OC)c2)c(=O)c2ccccc12", "Potency": "inactive"}, {"smiles": "Cc1cc(O)c(C(c2ccccc2Cl)N2CCN(c3ccccc3)CC2)c(=O)n1Cc1ccco1", "note": "(stereo not drawn)", "Potency": "inactive"}, {"smiles": "O=C1/C(=C/c2ccc(O)c(O)c2)SC(=S)N1Nc1ccccc1", "Potency": "inconclusive: 35.5 µM [inhibitor, partial curve, poor fit]"}, {"smiles": "CC1(NC(=O)COc2ccccc2-c2ccccc2)CCS(=O)(=O)C1", "note": "(stereo not drawn)", "Potency": "inactive"}, {"smiles": "CCNc1nc(NCC)nc(N/N=C/c2ccc(N(C)C)cc2)n1", "Potency": "inactive"}, {"smiles": "COc1cc(NC(=O)c2cnn(-c3cccc(F)c3)c2C2CCNCC2)cc(OC)c1OC", "Potency": "inconclusive: 3.16 µM [activator, full curve]"}, {"smiles": "Cc1ccc(S(=O)(=O)CCSc2nc(C)cc(C)c2C#N)cc1", "Potency": "inconclusive: 9.2 µM [inhibitor, partial curve, poor fit]"}, {"smiles": "CCCC(=NCC(=O)O)C1=C(O)C(C(=O)OC)C(C)(C)CC1=O", "note": "(stereo not drawn)", "Potency": "inactive"}, {"smiles": "c1ccc(CSCc2cn3ccccc3n2)cc1", "Potency": "inconclusive: 22.4 µM [inhibitor, single point]"}, {"smiles": "COc1ccc2cc3cc(C(=O)NCC4COc5ccccc5O4)oc3nc2c1", "note": "(stereo not drawn)", "Potency": "inconclusive: 15.8 µM [inhibitor, partial curve, poor fit]"}, {"smiles": "CCc1c(C)sc2c1CCN(Cc1ccc(F)cc1)C2c1ccccc1", "note": "(stereo not drawn)", "Potency": "inconclusive: 8.91 µM [inhibitor, partial curve, poor fit]"}, {"smiles": "NN1C(=O)/C(=C\\c2ccco2)SC1=S", "Potency": "inactive"}, {"smiles": "CCCCNC(=O)CCCn1c(=O)c2ccccc2n(Cc2ccccc2C)c1=O", "Potency": "inconclusive: 2.51 µM [inhibitor, partial curve, poor fit]"}, {"smiles": "CCCN(CCC)S(=O)(=O)c1ccc(C(=O)N2CCN(C)CC2)cc1", "Potency": "inconclusive: 3.98 µM [inhibitor, single point]"}, {"smiles": "O=C(Nc1nc(-c2ccccc2)c(-c2ccccc2)s1)c1ccc(S(=O)(=O)N2CCCCC2)cc1", "Potency": "inconclusive: 3.55 µM [inhibitor, single point]"}, {"smiles": "CC(=O)c1ccc(NC(=O)c2ncn(-c3ccccc3)n2)cc1", "Potency": "inactive"}, {"smiles": "CC(C)(C)NC(=O)C(c1ccncc1)N(Cc1ccco1)C(=O)c1ccc(-c2ccccc2)[nH]1", "note": "(stereo not drawn)", "Potency": "inconclusive: 35.5 µM [inhibitor, single point]"}, {"smiles": "Cc1ccc(CSc2cn(CC(=O)N3CCCCC3)c3ccccc23)cc1", "Potency": "inconclusive: 35.5 µM [inhibitor, single point]"}, {"smiles": "C/C(=N\\NC(=O)NC1CCCCC1)c1ccc(OC(F)F)cc1OC(F)F", "Potency": "inconclusive: 11.2 µM [inhibitor, partial curve, poor fit]"}, {"smiles": "CCc1ccc(CN(C(=O)c2cc3ccccc3oc2=O)C2CCS(=O)(=O)C2)cc1", "note": "(stereo not drawn)", "Potency": "inactive"}, {"smiles": "Cc1ccc2nc(N(Cc3cccnc3)C(=O)C3COc4ccccc4O3)sc2c1", "note": "(stereo not drawn)", "Potency": "inconclusive: 14.1 µM [activator, partial curve, poor fit]"}, {"smiles": "Cc1cc(NC(=O)c2ccccc2-c2ccccc2)ccc1Br", "Potency": "inconclusive: 5.62 µM [inhibitor, single point]"}, {"smiles": "CCOc1ccc(-c2cnc(NCc3ccc(OC)cc3OC)n2C)cc1", "Potency": "inconclusive: 31.6 µM [activator, single point]"}, {"smiles": "CCN(CC)C(=O)Oc1ccc2c(=O)c(-c3ccc(OC)cc3)c(C)oc2c1", "Potency": "inactive"}, {"smiles": "CCNC(=S)N/N=C(\\C)c1ccc(Cl)s1", "Potency": "inactive"}, {"smiles": "COc1ccc(NC(=O)CCNS(=O)(=O)c2ccc(Cl)c([N+](=O)[O-])c2)cc1S(N)(=O)=O", "Potency": "inconclusive: 35.5 µM [activator, single point]"}, {"smiles": "CC(C1CC1)N(Cc1ccccc1)C(=O)NC(=O)c1cccc(F)c1", "note": "(stereo not drawn)", "Potency": "inconclusive: 22.4 µM [inhibitor, partial curve, poor fit]"}, {"smiles": "Clc1ccc(CSc2nnc(-c3cccnc3)o2)cc1", "Potency": "inactive"}, {"smiles": "Cc1cc2ccccc2n2c(SCC(=O)NCc3cccs3)nnc12", "Potency": "inconclusive: 8.2 µM [inhibitor, partial curve]"}, {"smiles": "Fc1ccccc1NC(=S)NCCc1cccc(Cl)c1", "Potency": "inactive"}, {"smiles": "CCCCN(CC)CCCNC(=O)c1cc2c(-c3ccc(OC)c(OC)c3)nn(C)c2s1", "Potency": "inconclusive: 14.1 µM [inhibitor, single point]"}, {"smiles": "Cc1oc(-c2ccccc2)cc1C(=O)Nc1cccc(C(=O)O)c1", "Potency": "inactive"}, {"smiles": "CCOC(=O)C(C)Sc1nc(=O)n2cccc(C)c2n1", "note": "(stereo not drawn)", "Potency": "inconclusive: 2.82 µM [inhibitor, single point]"}, {"smiles": "Cc1cc(C)c(NC(=O)CSc2nccn2Cc2ccco2)c(C)c1", "Potency": "inactive"}, {"smiles": "CC(=O)/C(=N/Nc1ccccc1[N+](=O)[O-])N1CCCc2ccccc21", "Potency": "inconclusive: 10 µM [inhibitor, partial curve, poor fit]"}, {"smiles": "COc1cc(CN(C)Cc2cc(=O)n3ccsc3n2)ccc1OC(F)F", "Potency": "inconclusive: 35.5 µM [inhibitor, single point]"}, {"smiles": "Cn1c(=O)c2c(nc(CN3CCN(C(c4ccccc4)c4ccccc4)CC3)n2CCCO)n(C)c1=O", "Potency": "inconclusive: 10 µM [inhibitor, partial curve, poor fit]"}, {"smiles": "O=[N+]([O-])c1cc(S(=O)(=O)Nc2ccc(Cl)cc2)ccc1N/N=C/c1ccncc1", "Potency": "inactive"}, {"smiles": "CCC(=O)Nc1ccc(C(=O)CSc2nnc(-c3ccc(NS(C)(=O)=O)cc3)n2C)cc1OC", "Potency": "inconclusive: 8.2 µM [activator, partial curve, poor fit]"}, {"smiles": "Cc1ccc(NC(=O)CCCn2c(=O)c3cccn3c3cccnc32)c(Cl)c1", "Potency": "inconclusive: 12.6 µM [activator, partial curve, poor fit]"}, {"smiles": "CN(C)CCCNc1oc(/C=C/c2ccc(F)cc2)nc1C#N", "Potency": "inconclusive: 11.2 µM [activator, partial curve, poor fit]"}, {"smiles": "CC(C)[C@H](NC(=O)c1ccccc1)C(=O)OCC(=O)N1CCCc2ccccc21", "Potency": "inconclusive: 29.1 µM [inhibitor, single point]"}, {"smiles": "COc1cc(SC)ccc1C(=O)Nc1ccc(Cl)cn1", "Potency": "inconclusive: 1.58 µM [inhibitor, full curve, poor fit]"}, {"smiles": "N#C/C(=N\\Nc1ccccc1[N+](=O)[O-])C(=N)N1CCCCC1", "Potency": "inconclusive: 12.6 µM [inhibitor, single point]"}, {"smiles": "O=C(Nc1ccccc1)Nc1sccc1-c1nc2ccccc2s1", "Potency": "inactive"}, {"smiles": "CCCSc1nc2c(cnn2-c2ccccc2)c(=O)n1N", "Potency": "active: 8.91 µM"}, {"smiles": "CC1CC(=O)C2=C(C1)Nc1nc3ccccc3n1C2c1cccnc1", "note": "(stereo not drawn)", "Potency": "inconclusive: 1.26 µM [inhibitor, single point]"}]}]}
